## Screening data, single-dose tests

Protein sequences, listed by entry. Tags and fused reporters are not part of them. Residues count along the entry.
UniProt Q4DA54, 1-478: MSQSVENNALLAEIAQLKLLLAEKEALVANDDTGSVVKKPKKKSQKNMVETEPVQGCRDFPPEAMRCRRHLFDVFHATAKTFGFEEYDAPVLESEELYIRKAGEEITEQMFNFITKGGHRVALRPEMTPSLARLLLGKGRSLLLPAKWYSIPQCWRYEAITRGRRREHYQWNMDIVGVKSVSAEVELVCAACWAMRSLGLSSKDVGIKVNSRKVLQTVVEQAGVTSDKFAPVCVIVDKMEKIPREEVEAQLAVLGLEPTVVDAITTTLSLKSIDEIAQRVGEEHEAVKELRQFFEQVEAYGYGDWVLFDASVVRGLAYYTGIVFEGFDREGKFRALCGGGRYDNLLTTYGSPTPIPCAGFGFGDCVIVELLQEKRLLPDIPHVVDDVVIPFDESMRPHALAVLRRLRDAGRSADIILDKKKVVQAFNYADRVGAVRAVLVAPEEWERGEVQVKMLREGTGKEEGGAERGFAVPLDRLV
UniProt P9WNZ1, whole entry: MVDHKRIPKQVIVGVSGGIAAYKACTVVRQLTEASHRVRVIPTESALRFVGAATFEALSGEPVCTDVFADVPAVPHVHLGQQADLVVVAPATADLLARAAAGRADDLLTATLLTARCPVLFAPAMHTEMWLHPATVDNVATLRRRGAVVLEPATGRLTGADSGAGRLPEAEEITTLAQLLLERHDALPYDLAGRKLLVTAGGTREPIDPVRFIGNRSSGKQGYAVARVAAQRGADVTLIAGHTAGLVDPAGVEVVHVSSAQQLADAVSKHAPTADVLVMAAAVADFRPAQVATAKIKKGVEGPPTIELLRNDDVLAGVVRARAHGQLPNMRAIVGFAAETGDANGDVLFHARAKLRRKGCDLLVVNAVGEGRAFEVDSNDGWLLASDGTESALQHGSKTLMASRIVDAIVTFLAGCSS

Measurements from “University of Dundee, Small-Polar-MMV Screening Library” (2021), ChEMBL document CHEMBL3988442.

The filed quantity is “Percent Effect” (%).
How 0% and 100% were set is not recorded. Most values in the screen are low, and negative values occur.
Compounds were drawn at random from those tested, without regard to their results.
Two or more numbers in one place are separate tests of the same structure; such repeats can differ widely.
A dash means the value is not listed here; it may have been measured.

Toxoplasma: 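Assay of Toxoplasma gondii numbers, read through their beta-galactosidase reporter with a colour substrate. Concentration: 10 µM. Higher reads as fewer parasites (inferred from which compounds were picked for retests). About 67,000 compounds were tested under these conditions; 0.38% (about 260) showed 50% or more at least once.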
TcHisRS: 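Enzyme assay of histidyl-tRNA synthetase; the read-out is not stated. Target: Histidine-tRNA ligase, Trypanosoma cruzi CL Brener (UniProt Q4DA54). Concentration: 30 µM. Direction is inferred from retests: higher values go with stronger inhibition. Size under these conditions: about 69,000 compounds, about 31 of them at 50% or above in at least one test.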
CoaBC: 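Coenzyme A biosynthesis protein CoaBC, Mycobacterium tuberculosis (UniProt P9WNZ1). Enzyme assay of CoaBC with a phosphate dye (Biomol Green) read at 650 nm. Concentration: 30 µM. Higher reads as stronger inhibition, judged from the few compounds that gave an IC50. Most strong results did not repeat in a second test. About 67,000 compounds were tested under these conditions; 0.06% (about 40) showed 50% or more at least once.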
Leishmania in macrophages: 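Cell assay of Leishmania donovani living inside macrophages; the read-out is not stated. Concentration: 30 µM. The record gives no direction; compounds that gave an IC50 in retests scored well above the rest, so higher reads as stronger inhibition. Size under these conditions: about 69,000 compounds, about 1,000 of them at 50% or above in at least one test.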

structure	Toxoplasma	TcHisRS	CoaBC	Leishmania in macrophages
O=C1CCC2(CCCN(C(=O)NCc3ccccc3)CC2)N1 (stereo not given)	12.61%	5.825%	3.218%	6.104%
CN(CC1(CO)CC1)C(=O)C1CCC(=O)N(Cc2ccc(Cl)cc2)C1 (stereo not given)	-18.89%	6.358%	-11.57%	12.89%
Cl.Cl.[H][C@@]12CC[C@@H](COCc3csc(C)n3)O[C@]1([H])CCN2	2.287%	-	-	-28.61%
CCC(NCc1ccccc1Cl)c1ccccc1OCC(=O)NC (stereo not given)	-12.79%	2.105%	5.578%	26.07%
Cc1ccccc1C(NC(=O)NCC1(O)CCC1)C1CC1 (stereo not given)	-5.227%	6.667%	-2.724%	-14.32%
Cc1nn(C)c2cnn(Cc3ccc(C(=O)N4CCCCC4)o3)c12	5.847%	1.327%	2.103%	2.07%
O=C(O)C(F)(F)F.[H][C@]12CCC(=O)N(c3cccnc3)[C@@]1([H])CCN2C(=O)c1cnc(C)cn1	-0.6577%	-	-	26.72%
O=C(O)C(F)(F)F.[H][C@]12CCCN(Cc3ccc(F)cc3)[C@@]1([H])CN(C(=O)c1ccco1)C2	6.837%	-	-	24.28%
Cc1nc(CNC(=O)c2cc(COc3ccccc3)[nH]n2)n[nH]1	-18.47%	9.821%	3.899%	9.088%
O=C(Nc1cnn(-c2ccccc2Cl)c1)N[C@@H]1C=C[C@H](CO)C1	-1.299%	0.4926%	10.13%	21.28%
c1cc2n(n1)CC(CNCc1ccc(OC3CCCC3)nc1)CN2 (stereo not given)	-32.89%	8.621%	17.16%	4.861%
CO[C@@H]1CC[C@H]2[C@H]1OCCN2C(=O)c1ccc(C)o1	-	-1.087%	-2.662%	-
CCSCc1cccc(NC(=O)N(C)Cc2ncnn2C)c1	-	4.598%	-3.321%	29.42%
CNC(=O)C(C)CN(C)C(=O)Nc1cc(F)cc(Br)c1 (stereo not given)	12.51%	-15.62%	1.611%	-5.849%
Cc1nc(C)n(C2CCCN(C(=O)c3csc(CC(C)C)n3)C2)n1 (stereo not given)	19.75%	2.035%	-0.5821%	22.5%
COc1ccc(F)c(CN2CCCC3(CCN(S(C)(=O)=O)C3)C2)c1 (stereo not given)	0.3014%	1.98%	7.993%	5.672%
[H][C@]12CC[C@]([H])(CN(C(=O)CCc3nc(Cl)n[nH]3)C1)N(CC=C(C)C)C2=O	-24.76%	-	-	20.66% and 16.34%
Cc1ccc(CNCc2cccc(NC(=O)CCN3CCOCC3)c2)s1	9.294%	4.972%	4.204%	23.47%
COc1cc(F)ccc1-c1cc(N)ccn1	14.69%	1.176%	-1.474%	17.15%
O=C(C1CCC1)N1CC[C@H](O)[C@@H]1Cc1cccnc1	-	-19.05%	2.716%	-
O=C(c1cccnc1N1CCOC(c2ccc(Cl)cc2)C1)N1CCCC1 (stereo not given)	-1.642%	5.155%	12.09%	2.822%
CCc1ccc(S(=O)(=O)Nc2cc(C(=O)O)ccc2F)s1	9.061%	3.79%	7.597%	-0.9634%
Cc1cc(OC(F)F)c(C(=O)N2CC[C@H](O)C2)s1	4.353%	7.216%	-6.84%	-3.358%
c1ccc(Cc2noc(CN3CCOC(Cn4cccn4)C3)n2)cc1 (stereo not given)	4.32%	3.458%	1.591%	-52.07%
O=C(c1ccno1)N1CCOC[C@H](Oc2ccccc2)C1	-3.534%	11.96%	6.402%	7.683%
Cc1nc(C)n(C2CCCN(C(=O)c3csc(C(C)C)n3)C2)n1 (stereo not given)	0.7467%	-1.504%	2.254%	6.081%
CCCn1cc(C(=O)N2CCOC(c3nc(-c4cccs4)no3)C2)cn1 (stereo not given)	8.934%	9.89%	1.456%	-8.234% and 11.94%
Cc1nccn1-c1ccc(NS(=O)(=O)c2cccnc2)cn1	-0.5358%	2.762%	-2.427%	-1.615%
N#Cc1ccccc1N1CCCN(C(=O)CCc2nccs2)CC1	-	1.504%	7.455%	28.32%
CC(C)c1cc(NCC2(N3CCOCC3)CCCCC2)ncn1	1.535%	2.381%	-2.696%	-14.2%
Cn1cccc1-c1cc(C(=O)N2CCCCC2c2ccc(F)cc2)[nH]n1 (stereo not given)	-8.021%	1.02%	13.1%	-11.28%
O=C(COc1ccc2c(c1)CCC2)N1CCCC(n2cccn2)C1 (stereo not given)	5.675%	7.563%	0.216%	-21.2%
CC(=O)N1CCCC2(CN(Cc3ccccc3C(F)(F)F)CCO2)C1 (stereo not given)	7.099%	4.902%	0.9772%	14.96%
O=C(NCc1cn2c(n1)CN(Cc1ccncc1)CC2)C1CCC1.O=C(O)C(F)(F)F.O=C(O)C(F)(F)F	-0.8451%	-	-	-19.69%
Cn1ccc(CN2CCCC23CCN(Cc2nccn2C)CC3)n1.O=C(O)C(F)(F)F.O=C(O)C(F)(F)F	6.044%	-	-	27.16%
CC(OCC1CC1)C(=O)Nc1ccn(Cc2ccccc2)n1 (stereo not given)	3.283%	2.381%	-1.106%	23.65%
Cc1csc(CN(C)C(=O)Nc2cnn(CC3CCCO3)c2)n1 (stereo not given)	3.755%	5.128%	5.052%	19.96%
Cc1ccc(NCc2nc3n(n2)CCCCC3)c(C)c1	-8.957%	4.969%	1.392%	0.7712%
N#Cc1ccnc(N2CCC(NCCN3CCOCC3)CC2)c1	15.24%	12.65%	1.829%	38.08%
CS(=O)(=O)N1CCC(c2nnc(CN3CCCC3)n2C2CC2)CC1	-11.03%	8.696%	-1.008%	-12.93%
CCc1cnc(N)nc1N1CCCC2(CCOCC2)C1	1.352%	4.372%	1.961%	31.71%
COC(=O)c1cc(OC)c(OC)cc1NCc1c(C)noc1C	3.366%	1.657%	-3.125%	6.006%
O=C(O)C(F)(F)F.O=S(=O)(C1CC1)N1CC[C@H](OCC2CC2)[C@@H]1Cc1cccnc1	0.4759%	-	-	14.97%
CC(Cn1cncn1)NCc1n[nH]c2c1CCCCC2 (stereo not given)	16.82%	1.176%	0.2457%	10.73%
Cn1ccc(C2CCCCCN2C(=O)c2cccnc2)n1 (stereo not given)	-15.56%	6.202%	-4.54%	-24.88%
CCc1noc(C)c1C(=O)N1CCCN(Cc2csc(C)n2)CC1	4.377%	1.667%	6.947%	6.563%
Cc1cc(C(=O)N2CCc3ncnc(-c4cnn(C)c4)c3CC2)no1	11.21%	-2.804%	-3.951%	2.21%
C/C(=C\c1ccco1)CN(C)C(C)Cc1ccccn1 (stereo not given)	-12.77%	-29.79%	8.434%	31.42%
COc1ccc2c(c1)C(=O)CC1(CCN(Cc3ccc(F)cc3)CC1)O2	23.85%	3.409%	1.456%	-2.421%
CCS(=O)(=O)N1CCC(OC)c2ccccc2N(CC(=O)NC)C(=O)C1 (stereo not given)	-24.47%	3.371%	4.6%	-6.617%
O=C(Cc1cn2ccccc2n1)N1CCCC(n2ccnc2)C1 (stereo not given)	-12.79%	6.553%	-7.507%	33.86%
O=C(Nc1ccccn1)C1CC(=O)N(Cc2ccccn2)C1 (stereo not given)	0.05028%	6.522%	7.692%	9.976%
CNC(=O)C1CCCN1C(=O)NCCCc1cccc(F)c1 (stereo not given)	0.1836%	2.762%	-0.8929%	21.07%
COCCN1CCC(CN(CC2CCCO2)C(=O)C2CCOCC2)CC1 (stereo not given)	19.29%	3.518%	2.768%	-18.16%
[H][C@]12CC[C@]([H])(CN(C(=O)c3ccncc3)C1)N(C(=O)COCC)C2	0.2551%	-	-	11.09%
CCc1nc(C)cn1C(=O)Nc1ccc(F)cc1	25.03%	4.624%	-5.031%	7.909%
O=c1[nH]c(NCCCO)nc2c1C1(CCCC1)Cc1ccccc1-2	-18.51%	1.22%	2.785%	-1.546% and 20.69%
Cc1cc(O)n(-c2ccccc2Cl)c(=O)c1C#N	13.03%	1.754%	1.272%	12.14%
c1ccc(-c2nnc([C@H]3CCN(C4CCC4)C3)o2)cc1	-0.6964%	5.435%	8.609%	6.292%
O=C(NC1CCN(Cc2cccc3c2OCCO3)CC1)c1cccs1	-6.702%	2.254%	5.471%	36.1%
C[C@@H]1CN(C2(C(=O)N(C)C)Cc3ccccc3C2)C[C@H](C)O1	3.315%	3.96%	3.426%	3.91%
Cc1nsc(NC(=O)NC2CCCOC2)n1 (stereo not given)	1.52%	1.176%	-1.966%	-17.01%
COc1ccc2c(c1)C1(CCN(Cc3ccccn3)CC1)N(C)CC2.O=C(O)C(F)(F)F.O=C(O)C(F)(F)F	4.394%	-	-	32.48%

6 of the entries, repeated:

* O=C1CCC2(CCCN(C(=O)NCc3ccccc3)CC2)N1 (stereo not given) | Toxoplasma: 12.61%; TcHisRS: 5.825%; CoaBC: 3.218%; Leishmania in macrophages: 6.104%
* Cc1ccccc1C(NC(=O)NCC1(O)CCC1)C1CC1 (stereo not given) | Toxoplasma: -5.227%; TcHisRS: 6.667%; CoaBC: -2.724%; Leishmania in macrophages: -14.32%
* CNC(=O)C(C)CN(C)C(=O)Nc1cc(F)cc(Br)c1 (stereo not given) | Toxoplasma: 12.51%; TcHisRS: -15.62%; CoaBC: 1.611%; Leishmania in macrophages: -5.849%
* COc1ccc(F)c(CN2CCCC3(CCN(S(C)(=O)=O)C3)C2)c1 (stereo not given) | Toxoplasma: 0.3014%; TcHisRS: 1.98%; CoaBC: 7.993%; Leishmania in macrophages: 5.672%
* Cn1cccc1-c1cc(C(=O)N2CCCCC2c2ccc(F)cc2)[nH]n1 (stereo not given) | Toxoplasma: -8.021%; TcHisRS: 1.02%; CoaBC: 13.1%; Leishmania in macrophages: -11.28%
* COc1cc(F)ccc1-c1cc(N)ccn1 | Toxoplasma: 14.69%; TcHisRS: 1.176%; CoaBC: -1.474%; Leishmania in macrophages: 17.15%